Values quoted from earlier work in patent US20040115266A1, “Oral itraconazole formulations and methods of making the same” (priority 2004, published 2004).
At least one compound was matched to its structure with a doubt left.

Details: low solubility and low permeability

In the case of `CCC(C)n1ncn(-c2ccc(N3CCN(c4ccc(OCC5COC(Cn6cncn6)(c6ccc(Cl)cc6Cl)O5)cc4)CC3)cc2)c1=O` (single isomer, unassigned; (+)) [Itraconazole, (+)-cis-4-[4-[4-[4-[[2-(2,4-dichlorophenyl)-2-(1H-1,2,4-triazol-1-ylmethyl)-1,3-dioxolan-4-yl]methoxy]phenyl]-1-piperazinyl]phenyl]-2,4-dihydro-2-(1-methylpropyl)-3H-1,2,4-triazol-3-one], the “Biopharmaceutics Classification System class” value is given as “class 4”.
